Record: PubChem BioAssay AID720505 (Drosophila RNAi Screening Center, 2013)

- Assay: 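Knock-downs that reduce calcium influx once internal stores are emptied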 (primary screen)
- Cells: Drosophila S2R+ cells
- Reagents: long dsRNA against Drosophila genes
- Challenge: thapsigargin (2 µM) in calcium-free buffer to empty internal stores, then 2 mM calcium added back
- Read-out: 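Fluo-4 signal in 384-well plates read on a FLIPR after thapsigargin (2 µM, calcium-free) store depletion and 2 mM calcium add-back; unnormalised mean endpoint per well; screen run twice, selected wells retested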
- Direction: calcium signal and retest calcium signal: higher = more calcium entry after store depletion
- Active means: 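About 1500 genes called as lowering calcium entry, by varying amounts, judged against per-plate control wells with STIM1 as positive and Rho1 as negative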
- Calls: active = called as lowering calcium entry; inactive = not called
The screen tested about 20,000 reagents; shown is a random part of those that have a named target and a result. Over the whole deposit, about 2,100 (10%) are marked active. 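Raw plate signals without normalisation; calls rest on control-based scores that were not deposited; replicate 2 separates called from uncalled poorly.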 The numbers tell different reagents against one gene apart. A plus sign joins genes that one reagent is predicted to hit. The record does not give: the amount of reagent, the time to read-out.

Gene	dsRNA no.	calcium signal, replicate 1	calcium signal, replicate 2	retest calcium signal, replicate 1	retest calcium signal, replicate 2	activity call
CG30087	1	204	115			inactive
hbn	1	65.2	135			inactive
hbn	2	71.3	159	116	165	inactive
hbn	3	58.9	184			inactive
hbn	4	141	234			inactive
colt	1	110	176			inactive
Targ1	1	111	112			inactive
ste24b	1	89.3	144			inactive
Pif1	1	144	199			inactive
c11.1	1	115	108			inactive
MED27	1	145	115			inactive
CG14015	1	104	86.2			inactive
Sb	1	107	153			inactive
CG7179	1	70.8	90			active
CG10428	1	125	89.6			inactive
Tim10 + CG42497	1	79.3	105			inactive
CG12025	1	108	120			inactive
CG5646	1	91.4	149			inactive
CG42322	1	166	246			inactive
CG42322	2	140	147			inactive
CG42322	3	149	151			inactive
Ntf-2r	1	103	116			inactive
trc	1	77.9	108			inactive
rost	1	95.4	104			inactive
CG18231	1	72	182			inactive
Lrrk	1	203	128	7131	155	inactive
Lrrk	2	99.6	138			inactive
Dic4	1	72.7	131			inactive
CG14327	1	99.1	116			inactive
NKAIN	1	115	102			inactive
NKAIN	2	121	206			inactive
Ugt35E2	1	63.9	88.4			active
DIP-epsilon	1	113	178	117	70.4	inactive
DIP-epsilon	2	72.8	198			active
ND-24	1	156	117			inactive
CG6674	1	74	118			active
Sema5c	1	98.7	86.9			inactive
Zn72D	1	129	74.7			inactive
dnd	1	140	191			inactive
CG2852	1	83.9	129			inactive
Ddx1	1	131	117			inactive
nAChRalpha2	1	194	202			inactive
Tmtc4	1	113	150			inactive
Or23a	1	162	153			inactive
CG31693	1	105	6467			inactive
CG18662	1	88.5	130			inactive
CG9008	1	71.8	130			inactive
CG8507	1	148	100			inactive
CG6753	1	132	123			inactive
CG9547	1	109	207			inactive

Just “calcium signal, replicate 1”, for 9 of the entries above:
Dic4	72.7
CG14327	99.1
NKAIN #1	115
NKAIN #2	121
Ugt35E2	63.9
DIP-epsilon #1	113
DIP-epsilon #2	72.8
ND-24	156
CG6674	74

Continued:
Gene	dsRNA no.	calcium signal, replicate 1	calcium signal, replicate 2	retest calcium signal, replicate 1	retest calcium signal, replicate 2	activity call
Jon99Ci	1	187	163			inactive
Cdc7	1	165	134	116	124	inactive
Cdc7	2	176	112			inactive
Cdc7	3	96.8	138			inactive
CG32668	1					inactive
CG3386	1	91	79.8			inactive
CtIP	1	81.3	139			inactive
cysu	1	119	148			inactive
CG4783	1	104	161			inactive
CG9896	1	5406	124			active
CG9896	2	130	140			inactive
ac	1	93.6	112			inactive
spaw	1	116	139			inactive
firl	1	72.9	98.7			active
CG4462	1	206	296			inactive
Invadolysin	1	68.6	96.3			active
CG9825	1	115	187			inactive
CG10466	1	130	110			inactive
CG3597	1	172	160			inactive
CG2121	1	211	133			inactive
CG2121	2	98.5	159			inactive
Ubc2	1	216	122			inactive
Ubc2	2	157	148			inactive
Rpn12	1	89	135			inactive
CG13332	1	107	210			inactive
CG15599	1	116	159			inactive
CG9396	1	126	137			inactive
HisT	1	98.7	120			inactive
HisT	2	86.8	90.4			inactive
HisT	3	120	75.2			inactive
CG4704	1	257	190			inactive
l(2)gd1	1	106	124			inactive
Cbp53E	1	120	143			inactive
CG8301	1	180	98.2			inactive
Pex2	1	75.2	119			inactive
CG34038	1	119	81.9			inactive
CG15093	1	156	120			inactive
CG15484	1	107	183	94.5	114	inactive
CG15484	2	83.6	97			inactive
CG15343	1	172	138			inactive
Pde1c	1	215	199			inactive
Pde1c	2	200	168			inactive
Pde1c	3	212	141			inactive
Pde1c	4	217	170			inactive
Pde1c	5	92.5	110			inactive
Pde1c	6	93.9	122			inactive
su(r)	1	110	131			inactive
CG6280	1	107	166			inactive
sunn	1	115	120			inactive
SF1	1	136	188			inactive
Nelf-A	1	187	239			inactive
CG31086 + CG31323	1	196	117			inactive
Rab9Fb	1	57.5	84.8			active
tld	1	259	121			inactive
CG14262	1	158	145			inactive
alien	1	63.9	70.4			active
